Assay results from US20170355736A1, “MORTALIN PEPTIDES AND ANTIBODIES AND USES THEREOF FOR INHIBITING MORTALIN ACTIVITY AND TREATING A DISEASE ASSOCIATED WITH A PATHOLOGICAL CELL” (Ramot at Tel-Aviv University Ltd., priority 2014, published 2017).
These are yes or no findings as the source states them, for the method shown. Some binding calls cover weakened binding; strength is not graded here.

Sequences of proteins named here, by UniProt entry; tags and fusion partners are left off. A change or cut given only in a name is not applied to a line headed by its entry.
UniProt P02748: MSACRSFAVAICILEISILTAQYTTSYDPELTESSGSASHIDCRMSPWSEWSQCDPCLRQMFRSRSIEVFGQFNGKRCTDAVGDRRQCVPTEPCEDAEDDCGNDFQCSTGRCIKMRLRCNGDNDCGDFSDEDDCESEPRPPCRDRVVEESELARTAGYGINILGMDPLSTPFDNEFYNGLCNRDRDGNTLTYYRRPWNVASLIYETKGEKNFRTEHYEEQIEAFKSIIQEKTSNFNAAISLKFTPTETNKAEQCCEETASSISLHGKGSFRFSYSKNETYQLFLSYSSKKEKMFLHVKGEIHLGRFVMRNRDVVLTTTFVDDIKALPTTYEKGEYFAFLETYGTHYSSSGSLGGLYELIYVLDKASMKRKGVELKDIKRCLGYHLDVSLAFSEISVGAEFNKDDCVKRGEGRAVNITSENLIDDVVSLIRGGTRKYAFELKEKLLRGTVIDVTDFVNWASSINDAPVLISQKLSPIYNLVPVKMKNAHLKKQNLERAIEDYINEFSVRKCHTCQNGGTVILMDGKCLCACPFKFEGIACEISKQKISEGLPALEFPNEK
UniProt P38646: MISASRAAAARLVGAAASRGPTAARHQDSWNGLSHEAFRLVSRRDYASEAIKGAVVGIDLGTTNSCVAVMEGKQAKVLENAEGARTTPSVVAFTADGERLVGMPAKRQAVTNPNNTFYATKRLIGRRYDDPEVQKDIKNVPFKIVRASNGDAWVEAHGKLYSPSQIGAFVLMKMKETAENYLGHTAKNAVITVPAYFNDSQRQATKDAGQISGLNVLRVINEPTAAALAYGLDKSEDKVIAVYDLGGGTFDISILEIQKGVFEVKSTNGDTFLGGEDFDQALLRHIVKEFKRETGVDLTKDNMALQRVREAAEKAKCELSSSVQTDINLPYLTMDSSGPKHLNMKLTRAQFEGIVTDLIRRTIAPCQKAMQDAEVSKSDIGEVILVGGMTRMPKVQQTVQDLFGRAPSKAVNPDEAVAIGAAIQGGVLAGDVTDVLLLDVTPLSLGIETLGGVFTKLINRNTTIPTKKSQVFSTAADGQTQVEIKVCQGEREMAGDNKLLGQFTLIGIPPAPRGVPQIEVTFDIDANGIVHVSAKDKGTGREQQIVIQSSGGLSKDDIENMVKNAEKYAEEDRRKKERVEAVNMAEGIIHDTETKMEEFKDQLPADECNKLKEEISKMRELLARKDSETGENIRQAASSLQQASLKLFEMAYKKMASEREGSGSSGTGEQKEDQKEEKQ

Target: Purified human C9 (Homo sapiens, UniProt P02748)
Assay: ELISA: purified human C9 (0.057 µM) coated, His-tagged mortalin (0.007 µM), anti-His antibody, OD 492 nm

With “His-tagged recombinant mortalin (from UniProt P38646 47-679)” the binding was “binds”.
